Earlier results in patent US20050118266A1, “Sustained/controlled release solid formulation as a novel drug delivery system with reduced risk of dose dumping” (priority 2002, published 2005).
At least one read-out could not be matched to a standard name with certainty. At least one structure is not confirmed: it was looked up by name or label, or the drawing left a doubt.

Settings: according to Biopharmaceutics Classification System; for permeability (BCS category): capability to penetrate through the gastrointestinal wall

Structure (SMILES): Cc1cccc(Nc2ccncc2S(=O)(=O)NC(=O)NC(C)C)c1 [torasemide]
- permeability (BCS category): highly permeable

Structure (SMILES): CNC(=C[N+](=O)[O-])NCCSCc1ccc(CN(C)C)o1 [ranitidine]
- BCS class: Class III
- permeability (BCS category): poorly permeable

Structure (SMILES): O=C(O)Cc1ccccc1Nc1c(Cl)cccc1Cl [diclofenac sodium]
- permeability (BCS category): highly permeable
